# Results published in the supplement of paper PMC8728848.
# The other results are listed elsewhere or left out.
# How the values were obtained:
# Experiment in all cases: glycan array binding signal (z-score within array); higher = stronger binding
# Conditions in all cases: glycan notation: IUPAC condensed, linker removed; mutation: D224N
# [1] = molecular target: Gal(b1-4)GlcNAc(b1-3)Gal(b1-4)GlcNAc(b1-2)Man(a1-3)[Gal(b1-4)GlcNAc(b1-3)Gal(b1-4)GlcNAc(b1-2)Man(a1-6)]Man(b1-4)GlcNAc(b1-4)[Fuc(a1-6)]GlcNAc
# In short: (§1)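 Columns mapping to the same glycan were averaged after glycan names were converted to IUPAC-condensed notation. The data come from 3228 arrays in the Consortium for Functional Glycomics database, limited to those with an available protein sequence. Binding is reported as a within-array Z-score averaged across arrays of one protein sequence and across linkers.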
# [2] = molecular target: Gal(b1-4)GlcNAc(b1-3)Gal(b1-4)GlcNAc(b1-2)[Gal(b1-4)GlcNAc(b1-3)Gal(b1-4)GlcNAc(b1-6)]Man(a1-6)[Gal(b1-4)GlcNAc(b1-3)Gal(b1-4)GlcNAc(b1-2)Man(a1-3)]Man(b1-4)GlcNAc(b1-4)GlcNAc
# In short: as §1
# [3] = molecular target: Gal(b1-4)GlcNAc(b1-3)Gal(b1-4)GlcNAc(b1-2)[Gal(b1-4)GlcNAc(b1-3)Gal(b1-4)GlcNAc(b1-6)]Man(a1-6)[Gal(b1-4)GlcNAc(b1-3)Gal(b1-4)GlcNAc(b1-2)Man(a1-3)]Man(b1-4)GlcNAc(b1-4)[Fuc(a1-6)]GlcNAc
# In short: as §1
# [4] = molecular target: Gal(b1-4)GlcNAc(b1-3)Gal(b1-4)GlcNAc(b1-3)Gal(b1-4)GlcNAc
# In short: as §1
# [5] = molecular target: Gal(b1-4)GlcNAc(b1-3)Gal(b1-4)GlcNAc(b1-3)Gal(b1-4)GlcNAc(b1-2)Man(a1-3)[Gal(b1-4)GlcNAc(b1-3)Gal(b1-4)GlcNAc(b1-3)Gal(b1-4)GlcNAc(b1-2)Man(a1-6)]Man(b1-4)GlcNAc(b1-4)GlcNAc
# In short: as §1
# [6] = molecular target: Gal(b1-4)GlcNAc(b1-3)Gal(b1-4)GlcNAc(b1-3)Gal(b1-4)GlcNAc(b1-2)Man(a1-3)[Gal(b1-4)GlcNAc(b1-3)Gal(b1-4)GlcNAc(b1-3)Gal(b1-4)GlcNAc(b1-2)Man(a1-6)]Man(b1-4)GlcNAc(b1-4)[Fuc(a1-6)]GlcNAc
# In short: as §1
# [7] = molecular target: Gal(b1-4)GlcNAc(b1-3)Gal(b1-4)GlcNAc(b1-3)Gal(b1-4)GlcNAc(b1-2)[Gal(b1-4)GlcNAc(b1-3)Gal(b1-4)GlcNAc(b1-3)Gal(b1-4)GlcNAc(b1-6)]Man(a1-6)[Gal(b1-4)GlcNAc(b1-3)Gal(b1-4)GlcNAc(b1-3)Gal(b1-4)GlcNAc(b1-2)Man(a1-3)]Man(b1-4)GlcNAc(b1-4)[Fuc(a1-6)]GlcNAc
# In short: as §1
# [8] = molecular target: Gal(b1-4)GlcNAc(b1-3)Gal(b1-4)GlcNAc(b1-3)Gal(b1-4)GlcNAc(b1-3)Gal(b1-4)GlcNAc(b1-2)Man(a1-3)[Gal(b1-4)GlcNAc(b1-3)Gal(b1-4)GlcNAc(b1-3)Gal(b1-4)GlcNAc(b1-3)Gal(b1-4)GlcNAc(b1-2)Man(a1-6)]Man(b1-4)GlcNAc(b1-4)GlcNAc
# In short: as §1
# [9] = molecular target: Gal(b1-4)GlcNAc(b1-3)Gal(b1-4)GlcNAc(b1-3)Gal(b1-4)GlcNAc(b1-3)Gal(b1-4)GlcNAc(b1-2)Man(a1-3)[Gal(b1-4)GlcNAc(b1-3)Gal(b1-4)GlcNAc(b1-3)Gal(b1-4)GlcNAc(b1-3)Gal(b1-4)GlcNAc(b1-2)Man(a1-6)]Man(b1-4)GlcNAc(b1-4)[Fuc(a1-6)]GlcNAc
# In short: as §1
# [10] = molecular target: Gal(b1-4)GlcNAc(b1-3)Gal(b1-4)GlcNAc(b1-3)Gal(b1-4)GlcNAc(b1-3)Gal(b1-4)GlcNAc(b1-2)[Gal(b1-4)GlcNAc(b1-3)Gal(b1-4)GlcNAc(b1-3)Gal(b1-4)GlcNAc(b1-3)Gal(b1-4)GlcNAc(b1-6)]Man(a1-6)[Gal(b1-4)GlcNAc(b1-3)Gal(b1-4)GlcNAc(b1-3)Gal(b1-4)GlcNAc(b1-3)Gal(b1-4)GlcNAc(b1-2)Man(a1-3)]Man(b1-4)GlcNAc(b1-4)[Fuc(a1-6)]GlcNAc
# In short: as §1
# [11] = molecular target: Gal(b1-4)GlcNAc(b1-3)Gal(b1-4)GlcNAc(b1-3)Gal(b1-4)GlcNAc(b1-3)Gal(b1-4)GlcNAc(b1-3)Gal(b1-4)GlcNAc(b1-2)Man(a1-3)[Gal(b1-4)GlcNAc(b1-3)Gal(b1-4)GlcNAc(b1-3)Gal(b1-4)GlcNAc(b1-3)Gal(b1-4)GlcNAc(b1-3)Gal(b1-4)GlcNAc(b1-2)Man(a1-6)]Man(b1-4)GlcNAc(b1-4)GlcNAc
# In short: as §1
# [12] = molecular target: Gal(b1-4)GlcNAc(b1-3)Gal(b1-4)GlcNAc(b1-3)Gal(b1-4)GlcNAc(b1-3)Gal(b1-4)GlcNAc(b1-3)Gal(b1-4)GlcNAc(b1-2)Man(a1-3)[Gal(b1-4)GlcNAc(b1-3)Gal(b1-4)GlcNAc(b1-3)Gal(b1-4)GlcNAc(b1-3)Gal(b1-4)GlcNAc(b1-3)Gal(b1-4)GlcNAc(b1-2)Man(a1-6)]Man(b1-4)GlcNAc(b1-4)[Fuc(a1-6)]GlcNAc
# In short: as §1
# [13] = molecular target: Gal(b1-4)GlcNAc(b1-3)Gal(b1-4)GlcNAc(b1-3)Gal(b1-4)GlcNAc(b1-3)Gal(b1-4)GlcNAc(b1-3)Gal(b1-4)GlcNAc(b1-2)[Gal(b1-4)GlcNAc(b1-3)Gal(b1-4)GlcNAc(b1-3)Gal(b1-4)GlcNAc(b1-3)Gal(b1-4)GlcNAc(b1-3)Gal(b1-4)GlcNAc(b1-6)]Man(a1-6)[Gal(b1-4)GlcNAc(b1-3)Gal(b1-4)GlcNAc(b1-3)Gal(b1-4)GlcNAc(b1-3)Gal(b1-4)GlcNAc(b1-3)Gal(b1-4)GlcNAc(b1-2)Man(a1-3)]Man(b1-4)GlcNAc(b1-4)[Fuc(a1-6)]GlcNAc
# In short: as §1
# [14] = molecular target: Gal(b1-4)GlcNAc(b1-3)Gal(b1-4)GlcNAc(b1-3)Gal(b1-4)GlcNAc(b1-3)Gal(b1-4)GlcNAc(b1-3)Gal(b1-4)GlcNAc(b1-3)Gal(b1-4)GlcNAc(b1-2)Man(a1-3)[Gal(b1-4)GlcNAc(b1-3)Gal(b1-4)GlcNAc(b1-3)Gal(b1-4)GlcNAc(b1-3)Gal(b1-4)GlcNAc(b1-3)Gal(b1-4)GlcNAc(b1-3)Gal(b1-4)GlcNAc(b1-2)Man(a1-6)]Man(b1-4)GlcNAc(b1-4)GlcNAc
# In short: as §1
# [15] = molecular target: Gal(b1-4)GlcNAc(b1-3)Gal(b1-4)GlcNAc(b1-3)GalNAc
# In short: as §1
# [16] = molecular target: Gal(b1-4)GlcNAc(b1-3)Gal(b1-4)GlcNAc(b1-3)[Gal(b1-4)GlcNAc(b1-3)Gal(b1-4)GlcNAc(b1-6)]GalNAc
# In short: as §1
# [17] = molecular target: Gal(b1-4)GlcNAc(b1-3)Gal(b1-4)GlcNAc(b1-6)[Gal(b1-3)]GalNAc
# In short: as §1
# [18] = molecular target: Gal(b1-4)GlcNAc(b1-3)Gal(b1-4)[Fuc(a1-3)]GlcNAc(b1-3)Gal(b1-4)[Fuc(a1-3)]GlcNAc
# In short: as §1
# [19] = molecular target: Gal(b1-4)GlcNAc(b1-3)GalNAc
# In short: as §1
# [20] = molecular target: Gal(b1-4)GlcNAc(b1-3)[Fuc(a1-3)GlcNAc(b1-6)]Gal(b1-4)Glc
# In short: as §1
# [21] = molecular target: Gal(b1-4)GlcNAc(b1-3)[Gal(b1-4)GlcNAc(b1-6)]Gal(b1-4)GlcNAc
# In short: as §1
# [22] = molecular target: Gal(b1-4)GlcNAc(b1-3)[GlcNAc(b1-6)]Gal(b1-4)GlcNAc
# In short: as §1
# [23] = molecular target: Gal(b1-4)GlcNAc(b1-6)Gal(b1-4)GlcNAc
# In short: as §1
# [24] = molecular target: Gal(b1-4)GlcNAc(b1-6)GalNAc
# In short: as §1
# [25] = molecular target: Gal(b1-4)GlcNAc(b1-6)[Gal(b1-3)]GalNAc
# In short: as §1
# [26] = molecular target: Gal(b1-4)GlcNAc(b1-6)[Gal(b1-4)GlcNAc(b1-3)]GalNAc
# In short: as §1
# [27] = molecular target: Gal(b1-4)GlcNAc6P
# In short: as §1
# [28] = molecular target: Gal(b1-6)Gal
# In short: as §1
# [29] = molecular target: Gal3S(b1-3)GalNAc
# In short: as §1
# [30] = molecular target: Gal3S(b1-3)GlcNAc
# In short: as §1
# [31] = molecular target: Gal3S(b1-3)[Fuc(a1-4)]GlcNAc
# In short: as §1
# [32] = molecular target: Gal3S(b1-4)Glc
# In short: as §1
# [33] = molecular target: Gal3S(b1-4)Glc6S
# In short: as §1
# [34] = molecular target: Gal3S(b1-4)GlcNAc
# In short: as §1
# [35] = molecular target: Gal3S(b1-4)[Fuc(a1-3)]Glc6S
# In short: as §1
# [36] = molecular target: Gal3S(b1-4)[Fuc(a1-3)]GlcNAc
# In short: as §1
# [37] = molecular target: Gal3S(b1-4)[Fuc(a1-3)]GlcNAc6S
# In short: as §1
binder,measurement,setting,value
a L Fucosidase (Thermotoga maritima) (protein) MASMKPRYKPDWESLREHTVPKWFDKAKFGIFIHWGIYSVPGWATPTGELGKVPMDAWFFQNPYAEWYENSLRIKESPTWEYHVKTYGENFEYEKFADLFTAEKWDPQEWADLFKKAGAKYVIPTTKHHDGFCLWGTKYTDFNSVKRGPKRDLVGDLAKAVREAGLRFGVYYSGGLDWRFTTEPIRYPEDLSYIRPNTYEYADYAYKQVMELVDLYLPDVLWNNMGWPEKGKEDLKYLFAYYYNKHPEGSVNDRWGVPHWDFKTAEYHVNYPGDLPGYKWEFTRGIGLSFGYNRNEGPEHMLSVEQLVYTLVDVVSKGGNLLLNVGPKGDGTIPDLQKERLLGLGEWLRKYGDAIYGTSVWERCCAKTEDGTEIRFTRKCNRIFVIFLGIPTGEKIVIEDLNLSAGTVRHFLTGERLSFKNVGKNLEITVPKKLLETDSITLVLEAVEE,glycan array binding signal (z-score),[1],0.376
same,glycan array binding signal (z-score),[2],1.93
same,glycan array binding signal (z-score),[3],0.031
same,glycan array binding signal (z-score),[4],-0.873
same,glycan array binding signal (z-score),[5],0.166
same,glycan array binding signal (z-score),[6],1.78
same,glycan array binding signal (z-score),[7],1.64
same,glycan array binding signal (z-score),[8],0.153
same,glycan array binding signal (z-score),[9],0.731
same,glycan array binding signal (z-score),[10],0.606
same,glycan array binding signal (z-score),[11],0.594
same,glycan array binding signal (z-score),[12],0.737
same,glycan array binding signal (z-score),[13],0.275
same,glycan array binding signal (z-score),[14],0.063
same,glycan array binding signal (z-score),[15],0.922
same,glycan array binding signal (z-score),[16],0.254
same,glycan array binding signal (z-score),[17],1.36
same,glycan array binding signal (z-score),[18],-0.594
same,glycan array binding signal (z-score),[19],-0.592
same,glycan array binding signal (z-score),[20],0.101
same,glycan array binding signal (z-score),[21],-0.337
same,glycan array binding signal (z-score),[22],0.333
same,glycan array binding signal (z-score),[23],-0.205
same,glycan array binding signal (z-score),[24],0.096
same,glycan array binding signal (z-score),[25],-0.395
same,glycan array binding signal (z-score),[26],0.13
same,glycan array binding signal (z-score),[27],1.37
same,glycan array binding signal (z-score),[28],-0.141
same,glycan array binding signal (z-score),[29],0.819
same,glycan array binding signal (z-score),[30],-0.043
same,glycan array binding signal (z-score),[31],0.534
same,glycan array binding signal (z-score),[32],-0.352
same,glycan array binding signal (z-score),[33],-0.25
same,glycan array binding signal (z-score),[34],0.275
same,glycan array binding signal (z-score),[35],0.443
same,glycan array binding signal (z-score),[36],0.994
same,glycan array binding signal (z-score),[37],-0.238

# Shown with tabs: entries from further up.
binder	measurement	setting	value
a L Fucosidase (Thermotoga maritima) (protein) MASMKPRYKPDWESLREHTVPKWFDKAKFGIFIHWGIYSVPGWATPTGELGKVPMDAWFFQNPYAEWYENSLRIKESPTWEYHVKTYGENFEYEKFADLFTAEKWDPQEWADLFKKAGAKYVIPTTKHHDGFCLWGTKYTDFNSVKRGPKRDLVGDLAKAVREAGLRFGVYYSGGLDWRFTTEPIRYPEDLSYIRPNTYEYADYAYKQVMELVDLYLPDVLWNNMGWPEKGKEDLKYLFAYYYNKHPEGSVNDRWGVPHWDFKTAEYHVNYPGDLPGYKWEFTRGIGLSFGYNRNEGPEHMLSVEQLVYTLVDVVSKGGNLLLNVGPKGDGTIPDLQKERLLGLGEWLRKYGDAIYGTSVWERCCAKTEDGTEIRFTRKCNRIFVIFLGIPTGEKIVIEDLNLSAGTVRHFLTGERLSFKNVGKNLEITVPKKLLETDSITLVLEAVEE	glycan array binding signal (z-score)	[12]	0.737
same	glycan array binding signal (z-score)	[21]	-0.337
